This is one part of the list. Potency and affinity values are given separately. Entries without a call are filed as inconclusive in the source.
Assay: Drosophila SCA1 whole organism dose response for polyglutamine toxicity reduction (AID 1595)
Details: Drosophila SCA1 polyglutamine model, at 1 µM, stronger effect = higher value

SMILES	suppression of toxicity
O=C(CCBr)N1CCN(C(=O)CCBr)CC1	1.43
COc1ccc(CCC(=O)c2c(O)cc(O[C@@H]3O[C@H](CO)C(O)[C@H](O)C3O[C@@H]3O[C@@H](C)[C@H](O)[C@@H](O)[C@H]3O)cc2O)cc1O (stereo not given in full)	5.71
C[n+]1c2cc(N)ccc2cc2ccc(N)cc21	2.86
Nc1ccc(S(=O)(=O)Nc2nccs2)cc1	1.43
Cc1ccc(C(C)C)cc2c(C)ccc1-2	0
CSc1ccc2c(c1)N(CCC1CCCCN1C)c1ccccc1S2 (stereo not given)	7.14
COC(=O)[C@H]1[C@H]2C[C@H]3c4[nH]c5ccccc5c4CCN3C[C@H]2CC[C@@H]1O	1.43
CC(=O)[C@H]1CCC2C3CC=C4C[C@@H](O)CC[C@]4(C)C3CC[C@@]21C (stereo not given in full)	1.43
Cc1cc(C2CCCCC2)n(O)c(=O)c1	0
CN(C)CC/C=C1\c2ccccc2Sc2ccc(Cl)cc21	0
CCn1cc(C(=O)O)c(=O)c2cnc(N3CCNCC3)nc21	1.43
CCCCCCCCCCCCC[N+](C)(C)Cc1ccccc1	4.29
NNC(=O)c1ccncc1	1.43
NC(Cc1ccc(Cl)cc1)C(=O)O (stereo not given)	0
CN(C)CCOC(=O)C(c1ccccc1)C1(O)CCCC1 (stereo not given)	0
COc1cc(NS(=O)(=O)c2ccc(N)cc2)ncn1	0
O=C(O)CCC(=O)Nc1ccc(S(=O)(=O)Nc2nccs2)cc1	0
CC(=O)N1CCN(c2ccc(OCC3CO[C@](Cn4ccnc4)(c4ccc(Cl)cc4Cl)O3)cc2)CC1 (stereo not given in full)	8.57
CC(C)(C)NCC(O)c1cc(O)cc(O)c1 (stereo not given)	0
CNC[C@H](O)c1cccc(O)c1	2.86

Retrieved one by one from above:
SMILES	suppression of toxicity
CCn1cc(C(=O)O)c(=O)c2cnc(N3CCNCC3)nc21	1.43
O=C(CCBr)N1CCN(C(=O)CCBr)CC1	1.43

From PubChem BioAssay
